Results from PMC5707401.
No constants are given. Whether binding was seen depends on the method and setting. In cells and extracts the contact can be indirect. A yes stands for co-enrichment or nearness to the bait. Other partners may have been found. For some assays here: No binding means not detected with the bait. For some assays here: Sequences can lack the tags named with a protein.

Chains of the proteins cited; added tags and fusions are not shown.
UniProt O95376: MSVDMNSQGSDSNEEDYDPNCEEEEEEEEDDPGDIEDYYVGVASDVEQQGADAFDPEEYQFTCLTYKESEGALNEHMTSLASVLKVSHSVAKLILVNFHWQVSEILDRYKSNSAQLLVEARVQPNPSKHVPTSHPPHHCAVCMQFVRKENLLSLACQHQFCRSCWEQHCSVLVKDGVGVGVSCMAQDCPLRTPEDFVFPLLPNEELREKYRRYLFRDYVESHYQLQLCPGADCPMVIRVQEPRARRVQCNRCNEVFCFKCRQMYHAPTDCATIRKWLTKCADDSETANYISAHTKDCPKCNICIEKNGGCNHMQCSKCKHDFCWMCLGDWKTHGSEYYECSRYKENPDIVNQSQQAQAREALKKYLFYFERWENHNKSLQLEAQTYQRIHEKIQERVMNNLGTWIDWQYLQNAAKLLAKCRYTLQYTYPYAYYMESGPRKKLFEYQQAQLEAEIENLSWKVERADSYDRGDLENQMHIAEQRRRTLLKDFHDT
UniProt P47813: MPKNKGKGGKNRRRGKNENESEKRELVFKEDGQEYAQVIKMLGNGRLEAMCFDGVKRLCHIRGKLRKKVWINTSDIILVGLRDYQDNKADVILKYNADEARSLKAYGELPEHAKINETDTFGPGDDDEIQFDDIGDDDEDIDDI
UniProt Q04637: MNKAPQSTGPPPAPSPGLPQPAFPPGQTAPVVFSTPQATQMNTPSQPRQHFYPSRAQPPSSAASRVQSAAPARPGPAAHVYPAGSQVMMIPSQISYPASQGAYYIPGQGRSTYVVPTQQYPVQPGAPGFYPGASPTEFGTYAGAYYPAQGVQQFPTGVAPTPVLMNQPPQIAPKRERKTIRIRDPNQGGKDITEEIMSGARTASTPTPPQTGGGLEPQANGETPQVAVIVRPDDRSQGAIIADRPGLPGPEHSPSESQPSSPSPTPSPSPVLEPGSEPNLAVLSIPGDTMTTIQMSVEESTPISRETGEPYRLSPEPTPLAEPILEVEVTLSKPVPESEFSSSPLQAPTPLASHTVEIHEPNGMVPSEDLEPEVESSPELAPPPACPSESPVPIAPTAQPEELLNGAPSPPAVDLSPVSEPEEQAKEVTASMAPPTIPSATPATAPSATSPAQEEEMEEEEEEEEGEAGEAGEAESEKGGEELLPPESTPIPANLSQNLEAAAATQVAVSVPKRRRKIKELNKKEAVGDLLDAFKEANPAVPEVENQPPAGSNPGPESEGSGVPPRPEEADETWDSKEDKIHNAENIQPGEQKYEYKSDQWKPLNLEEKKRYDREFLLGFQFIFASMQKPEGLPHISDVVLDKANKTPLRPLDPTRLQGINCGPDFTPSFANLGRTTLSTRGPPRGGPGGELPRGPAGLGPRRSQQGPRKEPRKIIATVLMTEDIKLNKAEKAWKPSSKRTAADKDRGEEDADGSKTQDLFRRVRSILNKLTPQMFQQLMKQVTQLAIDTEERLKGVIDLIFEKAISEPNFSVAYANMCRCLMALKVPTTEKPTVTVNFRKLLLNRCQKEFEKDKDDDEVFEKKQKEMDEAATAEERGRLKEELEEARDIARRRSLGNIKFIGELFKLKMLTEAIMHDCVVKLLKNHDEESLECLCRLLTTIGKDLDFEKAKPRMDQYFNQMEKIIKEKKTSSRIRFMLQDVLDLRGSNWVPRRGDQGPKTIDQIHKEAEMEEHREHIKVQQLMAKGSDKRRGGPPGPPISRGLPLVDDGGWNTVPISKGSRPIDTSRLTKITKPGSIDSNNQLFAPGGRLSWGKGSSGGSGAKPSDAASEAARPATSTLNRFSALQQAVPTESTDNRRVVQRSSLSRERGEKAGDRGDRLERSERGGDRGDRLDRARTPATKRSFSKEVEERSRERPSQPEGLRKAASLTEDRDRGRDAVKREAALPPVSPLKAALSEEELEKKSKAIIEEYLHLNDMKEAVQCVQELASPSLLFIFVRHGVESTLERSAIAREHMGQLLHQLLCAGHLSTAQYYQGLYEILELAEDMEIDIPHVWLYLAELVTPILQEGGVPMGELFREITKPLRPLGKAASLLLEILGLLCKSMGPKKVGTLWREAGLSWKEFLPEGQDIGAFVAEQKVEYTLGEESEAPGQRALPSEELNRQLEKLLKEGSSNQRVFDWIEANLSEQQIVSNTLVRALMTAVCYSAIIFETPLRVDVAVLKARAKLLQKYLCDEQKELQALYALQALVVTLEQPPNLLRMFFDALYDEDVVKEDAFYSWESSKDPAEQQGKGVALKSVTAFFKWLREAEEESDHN
UniProt O95602: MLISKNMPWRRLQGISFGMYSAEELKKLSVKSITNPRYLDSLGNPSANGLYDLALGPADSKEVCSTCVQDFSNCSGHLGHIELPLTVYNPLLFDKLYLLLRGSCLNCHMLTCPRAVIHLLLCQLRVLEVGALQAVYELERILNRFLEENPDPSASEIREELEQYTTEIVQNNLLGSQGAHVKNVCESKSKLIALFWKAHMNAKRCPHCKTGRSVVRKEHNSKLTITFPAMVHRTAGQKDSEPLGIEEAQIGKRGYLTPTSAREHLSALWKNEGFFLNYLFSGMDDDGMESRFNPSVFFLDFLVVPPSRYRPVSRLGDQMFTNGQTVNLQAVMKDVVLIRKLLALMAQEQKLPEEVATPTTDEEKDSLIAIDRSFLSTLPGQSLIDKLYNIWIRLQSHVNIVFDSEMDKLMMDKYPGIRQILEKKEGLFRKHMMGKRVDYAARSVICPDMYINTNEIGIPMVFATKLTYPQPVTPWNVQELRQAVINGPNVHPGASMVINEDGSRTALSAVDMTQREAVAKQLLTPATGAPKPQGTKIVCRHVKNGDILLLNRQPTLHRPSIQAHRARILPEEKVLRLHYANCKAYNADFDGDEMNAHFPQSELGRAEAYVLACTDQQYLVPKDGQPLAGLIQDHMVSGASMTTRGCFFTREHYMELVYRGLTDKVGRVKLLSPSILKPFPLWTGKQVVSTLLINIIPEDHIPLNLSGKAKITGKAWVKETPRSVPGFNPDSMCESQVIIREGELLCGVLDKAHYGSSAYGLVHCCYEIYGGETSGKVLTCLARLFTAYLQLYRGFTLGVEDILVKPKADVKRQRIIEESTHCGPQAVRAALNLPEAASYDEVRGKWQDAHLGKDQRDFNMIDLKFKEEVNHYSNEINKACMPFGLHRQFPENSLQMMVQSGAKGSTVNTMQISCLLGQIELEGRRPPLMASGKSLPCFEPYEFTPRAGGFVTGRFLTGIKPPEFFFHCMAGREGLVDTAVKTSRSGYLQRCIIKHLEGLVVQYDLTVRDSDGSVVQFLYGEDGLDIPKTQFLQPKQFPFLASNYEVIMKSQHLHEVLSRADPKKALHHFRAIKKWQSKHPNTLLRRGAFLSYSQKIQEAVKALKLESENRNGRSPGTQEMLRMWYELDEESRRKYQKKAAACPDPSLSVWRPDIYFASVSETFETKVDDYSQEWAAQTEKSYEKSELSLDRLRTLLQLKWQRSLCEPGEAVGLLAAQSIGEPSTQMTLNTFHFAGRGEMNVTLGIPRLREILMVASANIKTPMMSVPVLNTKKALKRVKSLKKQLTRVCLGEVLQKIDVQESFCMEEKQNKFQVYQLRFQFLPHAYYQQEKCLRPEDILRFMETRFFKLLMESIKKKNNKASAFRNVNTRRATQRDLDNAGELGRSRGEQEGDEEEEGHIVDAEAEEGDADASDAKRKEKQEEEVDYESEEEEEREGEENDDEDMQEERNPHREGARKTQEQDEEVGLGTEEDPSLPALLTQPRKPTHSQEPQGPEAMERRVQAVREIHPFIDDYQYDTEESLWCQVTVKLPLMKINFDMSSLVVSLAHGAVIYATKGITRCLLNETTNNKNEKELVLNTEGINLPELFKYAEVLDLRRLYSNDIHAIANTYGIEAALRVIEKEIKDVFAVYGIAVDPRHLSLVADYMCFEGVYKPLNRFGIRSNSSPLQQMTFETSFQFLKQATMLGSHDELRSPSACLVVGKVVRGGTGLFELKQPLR
UniProt O15160: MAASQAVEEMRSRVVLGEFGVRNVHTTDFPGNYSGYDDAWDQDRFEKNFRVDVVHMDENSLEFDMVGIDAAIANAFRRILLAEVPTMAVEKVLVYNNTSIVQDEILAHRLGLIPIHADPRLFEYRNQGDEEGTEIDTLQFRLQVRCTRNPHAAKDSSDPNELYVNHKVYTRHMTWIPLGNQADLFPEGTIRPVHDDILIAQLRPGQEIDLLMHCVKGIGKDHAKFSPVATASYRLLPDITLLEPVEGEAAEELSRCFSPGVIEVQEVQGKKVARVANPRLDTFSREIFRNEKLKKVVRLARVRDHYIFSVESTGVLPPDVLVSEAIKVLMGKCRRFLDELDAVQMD
UniProt O14802: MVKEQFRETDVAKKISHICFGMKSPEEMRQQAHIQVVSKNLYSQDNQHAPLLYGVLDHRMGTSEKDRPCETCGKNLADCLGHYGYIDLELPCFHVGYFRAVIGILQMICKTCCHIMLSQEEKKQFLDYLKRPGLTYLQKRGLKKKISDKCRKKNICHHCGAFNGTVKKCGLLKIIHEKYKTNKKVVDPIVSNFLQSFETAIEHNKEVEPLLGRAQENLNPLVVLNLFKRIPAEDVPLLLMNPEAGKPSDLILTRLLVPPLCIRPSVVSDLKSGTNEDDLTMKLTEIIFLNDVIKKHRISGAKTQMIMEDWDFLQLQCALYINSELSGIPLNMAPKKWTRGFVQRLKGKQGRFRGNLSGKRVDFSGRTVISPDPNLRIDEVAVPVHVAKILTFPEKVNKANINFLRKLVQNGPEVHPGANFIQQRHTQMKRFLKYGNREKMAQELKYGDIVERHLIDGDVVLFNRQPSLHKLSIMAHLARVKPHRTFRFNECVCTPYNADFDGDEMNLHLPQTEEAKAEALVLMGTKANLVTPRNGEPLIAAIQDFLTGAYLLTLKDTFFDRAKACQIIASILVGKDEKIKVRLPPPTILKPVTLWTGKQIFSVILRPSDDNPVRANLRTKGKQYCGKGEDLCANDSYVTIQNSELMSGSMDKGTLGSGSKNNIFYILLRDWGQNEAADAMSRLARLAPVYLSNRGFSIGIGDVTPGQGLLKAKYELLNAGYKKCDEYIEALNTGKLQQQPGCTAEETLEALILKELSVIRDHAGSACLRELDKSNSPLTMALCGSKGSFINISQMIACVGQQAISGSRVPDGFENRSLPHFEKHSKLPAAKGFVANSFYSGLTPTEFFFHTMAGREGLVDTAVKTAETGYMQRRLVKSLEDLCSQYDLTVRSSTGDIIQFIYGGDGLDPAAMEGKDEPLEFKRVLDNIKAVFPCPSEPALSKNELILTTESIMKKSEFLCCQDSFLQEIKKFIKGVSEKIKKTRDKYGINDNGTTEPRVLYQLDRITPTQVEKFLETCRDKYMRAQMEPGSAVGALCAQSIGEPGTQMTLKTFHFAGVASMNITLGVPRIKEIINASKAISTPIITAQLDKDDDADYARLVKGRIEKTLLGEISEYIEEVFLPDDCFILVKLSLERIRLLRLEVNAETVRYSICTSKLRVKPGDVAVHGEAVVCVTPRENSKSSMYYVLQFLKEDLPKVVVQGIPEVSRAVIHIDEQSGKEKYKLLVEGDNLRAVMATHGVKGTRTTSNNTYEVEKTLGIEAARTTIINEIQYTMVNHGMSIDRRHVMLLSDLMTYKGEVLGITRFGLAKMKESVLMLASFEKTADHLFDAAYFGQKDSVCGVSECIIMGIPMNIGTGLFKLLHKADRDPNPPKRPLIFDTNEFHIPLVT
UniProt P05387: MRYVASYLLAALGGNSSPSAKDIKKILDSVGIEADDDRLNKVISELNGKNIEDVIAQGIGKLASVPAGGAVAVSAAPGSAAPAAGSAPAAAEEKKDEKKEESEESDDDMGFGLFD

T1: GFP-tagged MEX3B (human) (UniProt Q6ZN04)
T1 sequence: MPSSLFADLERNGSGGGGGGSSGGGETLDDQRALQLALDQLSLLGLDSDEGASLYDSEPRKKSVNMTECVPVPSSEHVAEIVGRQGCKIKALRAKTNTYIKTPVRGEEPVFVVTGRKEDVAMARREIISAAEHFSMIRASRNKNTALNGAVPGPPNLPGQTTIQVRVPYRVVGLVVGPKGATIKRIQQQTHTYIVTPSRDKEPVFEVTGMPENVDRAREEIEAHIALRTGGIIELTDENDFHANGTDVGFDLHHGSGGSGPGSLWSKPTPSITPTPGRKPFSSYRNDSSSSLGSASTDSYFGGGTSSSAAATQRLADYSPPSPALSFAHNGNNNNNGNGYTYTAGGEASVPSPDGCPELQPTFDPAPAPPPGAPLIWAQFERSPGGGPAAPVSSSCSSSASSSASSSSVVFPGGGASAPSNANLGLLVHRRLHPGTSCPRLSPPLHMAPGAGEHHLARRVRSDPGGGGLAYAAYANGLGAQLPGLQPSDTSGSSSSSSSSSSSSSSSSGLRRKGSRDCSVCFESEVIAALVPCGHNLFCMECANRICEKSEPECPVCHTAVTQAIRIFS

T2: GFP-tagged MKRN2 (human) (UniProt Q9H000)
T2 sequence: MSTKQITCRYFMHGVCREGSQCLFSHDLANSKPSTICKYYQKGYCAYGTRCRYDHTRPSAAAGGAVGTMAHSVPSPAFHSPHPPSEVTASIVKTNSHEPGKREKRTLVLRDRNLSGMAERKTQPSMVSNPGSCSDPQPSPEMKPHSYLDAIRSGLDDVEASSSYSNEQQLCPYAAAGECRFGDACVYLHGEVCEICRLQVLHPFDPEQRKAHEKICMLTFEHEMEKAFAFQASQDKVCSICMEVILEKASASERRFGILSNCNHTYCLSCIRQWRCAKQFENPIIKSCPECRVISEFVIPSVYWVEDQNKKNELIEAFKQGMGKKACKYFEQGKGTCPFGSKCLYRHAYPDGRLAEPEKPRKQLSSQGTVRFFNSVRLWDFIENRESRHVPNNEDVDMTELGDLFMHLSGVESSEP

T3: GFP-tagged MKRN1 (human) (UniProt Q9UHC7)
T3 sequence: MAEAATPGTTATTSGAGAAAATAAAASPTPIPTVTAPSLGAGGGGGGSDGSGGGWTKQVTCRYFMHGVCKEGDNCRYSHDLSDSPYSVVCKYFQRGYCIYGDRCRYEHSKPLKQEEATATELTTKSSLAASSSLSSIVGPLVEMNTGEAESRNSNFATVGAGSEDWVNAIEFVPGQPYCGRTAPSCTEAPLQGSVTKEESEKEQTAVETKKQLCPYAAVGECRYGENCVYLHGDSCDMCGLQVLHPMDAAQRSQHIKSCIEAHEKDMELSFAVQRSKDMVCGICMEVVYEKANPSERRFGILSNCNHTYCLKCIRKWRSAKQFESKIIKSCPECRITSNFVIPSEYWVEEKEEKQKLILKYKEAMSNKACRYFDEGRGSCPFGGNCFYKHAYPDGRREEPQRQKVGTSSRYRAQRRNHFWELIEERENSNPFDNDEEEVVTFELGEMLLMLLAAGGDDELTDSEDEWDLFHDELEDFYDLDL

T4: GFP-tagged PRPF19 (human), Q9UMS4
T4 chain: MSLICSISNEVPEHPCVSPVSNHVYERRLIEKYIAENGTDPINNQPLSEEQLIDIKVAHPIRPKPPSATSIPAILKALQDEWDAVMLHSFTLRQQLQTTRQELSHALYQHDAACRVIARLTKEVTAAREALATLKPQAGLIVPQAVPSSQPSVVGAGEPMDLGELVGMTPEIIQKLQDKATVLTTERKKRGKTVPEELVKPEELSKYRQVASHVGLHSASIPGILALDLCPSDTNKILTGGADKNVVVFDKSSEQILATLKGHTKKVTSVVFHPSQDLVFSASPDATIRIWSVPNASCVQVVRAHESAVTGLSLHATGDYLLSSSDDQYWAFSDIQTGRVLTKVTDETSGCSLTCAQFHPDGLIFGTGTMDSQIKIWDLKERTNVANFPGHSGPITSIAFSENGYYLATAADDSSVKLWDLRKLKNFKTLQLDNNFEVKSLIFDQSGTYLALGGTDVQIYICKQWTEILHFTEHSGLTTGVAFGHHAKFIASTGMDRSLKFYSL


Experiments:
Assay in all cases: affinity purification with mass spectrometry; adapted SILAC-based AP: heavy-labelled HEK293T cells expressing the GFP-tagged RBUL mixed in equal amounts with light-labelled cells expressing GFP before lysis in mRIPA buffer; GFP-trap agarose beads, 1 h at 4 °C; on-bead trypsin digest, LC-MS/MS; putative interactors at mean z-score ≥ 2
[1] = target: GFP-tagged ARIH2 (human) (UniProt O95376)
[2] = target: GFP-tagged PRPF19 (human) (UniProt Q9UMS4)
[3] = target: T1, GFP-tagged MEX3B (human)
[4] = target: GFP-tagged RNF17 (human) (UniProt Q9BXT8)
[5] = target: T2, GFP-tagged MKRN2 (human)
[6] = target: T3, GFP-tagged MKRN1 (human)
[7] = target: T4, GFP-tagged PRPF19 (human), Q9UMS4; settings: remark: other sources report otherwise

Row | binding [1] | binding [2] | binding [3] | Molecule | further results
1 | binds | – | – | EIF1AX (from UniProt P47813 1-144) | –
2 | – | binds | binds | EIF4G1 (from UniProt Q04637 1-1599) | –
3 | – | binds | binds | HUWE1 (from UniProt Q7Z6Z7 1-4374) | –
4 | – | – | binds | POLR1A (from UniProt O95602 1-1720) | –
5 | – | – | binds | POLR1C (from UniProt O15160 1-346) | –
6 | binds | binds | binds | POLR3A (from UniProt O14802 1-1390) | –
7 | binds | – | – | RNF20 (from UniProt Q5VTR2 1-975) | –
8 | – | – | – | RPLP2 (from UniProt P05387 1-115) | binding [4]: binds
9 | – | – | binds | TNRC6A (from UniProt Q8NDV7 1-1962) | –
10 | binds | binds | binds | ubiquitin-dependent co-chaperone VCP (from UniProt P55072 1-806) | binding [5]: binds; binding [6]: binds; binding [4]: binds
11 | – | – | – | PRPF3, O43395 1-683 (protein) MALSKRELDELKPWIEKTVKRVLGFSEPTVVTAALNCVGKGMDKKKAADHLKPFLDDSTLRFVDKLFEAVEEGRSSRHSKSSSDRSRKRELKEVFGDDSEISKESSGVKKRRIPRFEEVEEEPEVIPGPPSESPGMLTKLQIKQMMEAATRQIEERKKQLSFISPPTPQPKTPSSSQPERLPIGNTIQPSQAATFMNDAIEKARKAAELQARIQAQLALKPGLIGNANMVGLANLHAMGIAPPKVELKDQTKPTPLILDEQGRTVDATGKEIELTHRMPTLKANIRAVKREQFKQQLKEKPSEDMESNTFFDPRVSIAPSQRQRRTFKFHDKGKFEKIAQRLRTKAQLEKLQAEISQAARKTGIHTSTRLALIAPKKELKEGDIPEIEWWDSYIIPNGFDLTEENPKREDYFGITNLVEHPAQLNPPVDNDTPVTLGVYLTKKEQKKLRRQTRREAQKELQEKVRLGLMPPPEPKVRISNLMRVLGTEAVQDPTKVEAHVRAQMAKRQKAHEEANAARKLTAEQRKVKKIKKLKEDISQGVHISVYRVRNLSNPAKKFKIEANAGQLYLTGVVVLHKDVNVVVVEGGPKAQKKFKRLMLHRIKWDEQTSNTKGDDDEESDEEAVKKTNKCVLVWEGTAKDRSFGEMKFKQCPTENMAREHFKKHGAEHYWDLALSESVLESTD | binding [7]: no binding
12 | – | – | binds | transcriptional repressor ZGPAT (protein, UniProt Q8N5A5 1-531) MDEESLESALQTYRAQLQQVELALGAGLDSSEQADLRQLQGDLKELIELTEASLVSVRKSSLLAALDEERPGRQEDAEYQAFREAITEAVEAPAAARGSGSETVPKAEAGPESAAGGQEEEEGEDEEELSGTKVSAPYYSSWGTLEYHNAMVVGTEEAEDGSAGVRVLYLYPTHKSLKPCPFFLEGKCRFKENCRFSHGQVVSLDELRPFQDPDLSSLQAGSACLAKHQDGLWHAARITDVDNGYYTVKFDSLLLREAVVEGDGILPPLRTEATESDSDSDGTGDSSYARVVGSDAVDSAQSSALCPSLAVVGSDAVDSGTCSSAFAGWEVHTRGIGSRLLTKMGYEFGKGLGRHAEGRVEPIHAVVLPRGKSLDQCVETLQKQTRVGKAGTNKPPRCRGRGARPGGRPAPRNVFDFLNEKLQGQAPGALEAGAAPAGRRSKDMYHASKSAKRALSLRLFQTEEKIERTQRDIRSIQEALARNAGRHSVASAQLQEKLAGAQRQLGQLRAQEAGLQQEQRKADTHKKMTEF | –
13 | – | binds | – | SNRNPD40 (protein, UniProt Q96DI7 1-357) MIEQQKRKGPELPLVPVKRQRHELLLGAGSGPGAGQQQATPGALLQAGPPRCSSLQAPIMLLSGHEGEVYCCKFHPNGSTLASAGFDRLILLWNVYGDCDNYATLKGHSGAVMELHYNTDGSMLFSASTDKTVAVWDSETGERVKRLKGHTSFVNSCYPARRGPQLVCTGSDDGTVKLWDIRKKAAIQTFQNTYQVLAVTFNDTSDQIISGGIDNDIKVWDLRQNKLTYTMRGHADSVTGLSLSSEGSYLLSNAMDNTVRVWDVRPFAPKERCVKIFQGNVHNFEKNLLRCSWSPDGSKIAAGSADRFVYVWDTTSRRILYKLPGHAGSINEVAFHPDEPIIISASSDKRLYMGEIQ | –
14 | binds | – | – | MID1 (protein, UniProt O15344 1-667) METLESELTCPICLELFEDPLLLPCAHSLCFNCAHRILVSHCATNESVESITAFQCPTCRHVITLSQRGLDGLKRNVTLQNIIDRFQKASVSGPNSPSETRRERAFDANTMTSAEKVLCQFCDQDPAQDAVKTCVTCEVSYCDECLKATHPNKKPFTGHRLIEPIPDSHIRGLMCLEHEDEKVNMYCVTDDQLICALCKLVGRHRDHQVAALSERYDKLKQNLESNLTNLIKRNTELETLLAKLIQTCQHVEVNASRQEAKLTEECDLLIEIIQQRRQIIGTKIKEGKVMRLRKLAQQIANCKQCIERSASLISQAEHSLKENDHARFLQTAKNITERVSMATASSQVLIPEINLNDTFDTFALDFSREKKLLECLDYLTAPNPPTIREELCTASYDTITVHWTSDDEFSVVSYELQYTIFTGQANVVSLCNSADSWMIVPNIKQNHYTVHGLQSGTKYIFMVKAINQAGSRSSEPGKLKTNSQPFKLDPKSAHRKLKVSHDNLTVERDESSSKKSHTPERFTSQGSYGVAGNVFIDSGRHYWEVVISGSTWYAIGLAYKSAPKHEWIGKNSASWALCRCNNNWVVRHNSKEIPIEPAPHLRRVGILLDYDNGSIAFYDALNSIHLYTFDVAFAQPVCPTFTVWNKCLTIITGLPIPDHLDCTEQLP | –
